The values are deposited in ChEMBL (CHEMBL3988442, “University of Dundee, Small-Polar-MMV Screening Library” (2021)).

The filed quantity is “Percent Effect” (%).
The controls that fix the scale are not given in the record; negative values are as filed.
The compounds are a random part of those screened.
Two or more numbers in one place are separate tests of the same structure; such repeats can differ widely.

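Whole-cell growth test on Mycobacterium tuberculosis, read after 3 days in glucose-containing 7H9 medium; the read-out is not stated. Compounds at 50 µM. The record gives no direction; compounds that gave an IC50 in retests scored well above the rest, so higher reads as more growth inhibition. About 69,000 compounds were tested under these conditions; 1.1% (about 760) showed 50% or more at least once.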

CCC(CO)N(Cc1ccsc1)Cc1ccc(-c2ccn[nH]2)s1 (stereo not given) read -3.618%. For COc1ccc(-c2cc(CC3(NCc4ccc(C)o4)COC3)no2)cc1 the result was -11.92% and 13.21%. COCCCN1CCN(c2ncnc3nc(C)cc(C)c23)CC1 gave -2.429%. Cc1ncc(C)c(N2CCC(CCc3ccccc3)(C(=O)O)CC2)n1 gave 2.58%. For O=C(O)C(F)(F)F.[H][C@@]12CCC(=O)N(c3cnn(C)c3)[C@]1([H])CCN2Cc1nccs1 the result was 1.266%. For Cc1cc(C(=O)Cn2cnnc2[S+](C)[O-])cc(C)c1F (stereo not given) the result was -9.488% and -6.141%. With CN(C)c1ccc(CNCc2cnc(N3CCOCC3)nc2)cn1.Cl the screen gave 16.24%. CSC(CNS(=O)(=O)c1cnn(C)c1)c1cccc(Cl)c1 (stereo not given) gave 22.6%.

COCCCn1ccc(NCc2ccc(NC(C)=O)cc2)n1 read 15.01%. Result for Cc1cc(N(C)C)nc(C2COCCN2Cc2cc(C)on2)n1 (stereo not given) was -1.285%. CC(=O)C1(c2ccccc2)CCN(C(=O)c2ccn3nnnc3c2)CC1 read 6.802%. Cc1ccc(C)c(CS(=O)(=O)CC(=O)NC(C)c2ccc(F)cc2F)c1 (stereo not given) read -11.06%. Result for CCN(C)CC1CCN(C(=O)NCCC2Cc3ccccc3C2)C1 (stereo not given) was -2.58% and 2.623%. With c1nc(N2CCc3[nH]cnc3C2)c2cc[nH]c2n1 the screen gave 24.85%. With CC1CCCN(C(=O)Cn2cc(I)cn2)C1 (stereo not given) the screen gave -5.836% and 7.187%. O=C(c1csc(-c2cccs2)n1)N1CCCC1Cn1cccn1 (stereo not given) read 6.144%.

Result for Fc1ccc(CNCCn2cccn2)c(Cl)c1 was -6.255%. [H][C@@]12CN(S(=O)(=O)c3ccccc3)C[C@]1([H])OCC(=O)N2CC1CCCCC1 read 12.71% and 1.958%. CN1CCN(c2cccc(NC(=O)NCc3csc(N(C)C)n3)c2)C1=O gave -4.84% and -1.092%. CN(C)c1ncc(-c2cncnc2)c(C2CNCCO2)n1.Cl (stereo not given) gave 0.9761%. Cc1c[nH]c(C(=O)N2CCCC2c2ccc(C(=O)N3CCSCC3)s2)n1 (stereo not given) read 7.503% and -33.36%. Cc1cccnc1CN1CCN(Cc2ccc(-c3cc[nH]n3)o2)CC1 gave -14.48%. With Cn1cc(C(=O)N2CCC(c3ncc[nH]3)CC2)cn1 the screen gave -1.944% and -3.272%. With Cc1cccc(N2CCC3(CCCC(=O)N3)CC2)n1.O=C(O)C(F)(F)F the screen gave -6.389% and -4.717%.

Result for CC(C)N(C)S(=O)(=O)c1ccc2c(c1)CCN(C(=O)c1ccccn1)C2 was -41.55%. Result for CNS(=O)(=O)c1cccc(CNC(=O)c2cnn(C)c2C)c1 was 1.075% and -2.39%. With Cc1occc1C(=O)N1CCOCC2(CCN(Cc3nccs3)C2)C1.O=C(O)C(F)(F)F (stereo not given) the screen gave -24.1%. With Cc1nc(NCCc2ccc(Cl)cc2)cc(C(=O)N2CCCCC2)n1 the screen gave -57.27%. For CSc1ccc(CNCCS(=O)(=O)N2CCOCC2)cc1 the result was 7.05%. CC(C)(C)C(=O)N1C[C@@H](F)[C@@H](OCc2nc3ncccc3[nH]2)C1 gave -27.26% and -3.654%. For Cn1cnc(S(=O)(=O)N2CCCc3c(F)cc(F)cc32)c1Cl the result was -0.05723%. With CN(C)[C@@H]1CO[C@H](CNC(=O)C2CCCC2)[C@H]1O the screen gave -2.096% and -9.369%.

For Cc1noc(CCCC(=O)NCCc2cc3ccccc3[nH]2)n1 the result was 10.61%. CCn1nc(C)cc1C(=O)OCCNc1ncnc2ccccc12 gave 10.15%. COC1CCCN(c2nc(C)nc3c2CCN(Cc2ccco2)CC3)C1 (stereo not given) read 3.804% and -9.029%.

3 of the entries, repeated:

| Compound | effect |
|---|---|
| `Cc1nc(NCCc2ccc(Cl)cc2)cc(C(=O)N2CCCCC2)n1` | -57.27 |
| `CC(C)(C)C(=O)N1C[C@@H](F)[C@@H](OCc2nc3ncccc3[nH]2)C1` | -27.26 and -3.654 |
| `Cn1cc(C(=O)N2CCC(c3ncc[nH]3)CC2)cn1` | -1.944 and -3.272 |